Values from PubChem BioAssay AID1259299 (Sanger Institute, 2017)
This is one part, drawn at random, of 794 deposited reagents. Over the whole deposit, 9 (1.1%) got an active call. 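Calls rest on knock-down alone; synergy scores play no part in calls, and no gene passed the synergy cut.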 No viability above 1 is reported: the scale is capped. Not all columns of the deposit are shown. The record does not give: the amount of reagent, the time to read-out.

Test: 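Essential genes and drug-synergistic partners among kinases and colorectal mutation genes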 (primary screen)
System: human CAR1 colorectal cancer cells
Reagent: siRNA pool against human genes
Treatment: anchor drug BYL719 1 µM, cetuximab 5 µg/ml or trametinib 10 nM, or DMSO vehicle alone; exposure length not given
Measurement: 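Cell viability as fraction of non-targeting siRNA wells, mean of replicates, with robust z-score and a synergy score for each of three drugs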
Reading the numbers: viability robust z-score, knock-down alone and viability, knock-down alone (DMSO): higher = more viable cells
Rule for the call: 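Essential when viability robust z-score with knock-down alone (DMSO) is below -3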
Meaning of the calls: active = essential (knock-down alone); inactive = no change

| target gene | viability robust z-score, knock-down alone | viability, knock-down alone (DMSO) (fraction of control) | Call |
| --- | --- | --- | --- |
| NAGK (N-acetylglucosamine kinase) | 0.192 | 0.945 | inactive |
| CDC73 (cell division cycle 73) | -0.222 | 0.907 | inactive |
| EPHA3 (EPH receptor A3) | -1.23 | 0.814 | inactive |
| CDK3 (cyclin dependent kinase 3) | -0.0674 | 0.921 | inactive |
| NME7 (NME/NM23 family member 7) | 0.789 | 1 | inactive |
| CSNK1D (casein kinase 1 delta) | 0.165 | 0.942 | inactive |
| PDK1 (pyruvate dehydrogenase kinase 1) | 0.789 | 1 | inactive |
| CDK7 (cyclin dependent kinase 7) | 0.646 | 0.987 | inactive |
| FXN (frataxin) | 0.789 | 1 | inactive |
| KALRN (kalirin RhoGEF kinase) | 0.551 | 0.978 | inactive |
| TSSK2 (testis specific serine kinase 2) | -0.327 | 0.897 | inactive |
| MINK1 (misshapen like kinase 1) | 0.789 | 1 | inactive |
| PDPK1 (3-phosphoinositide dependent protein kinase 1) | 0.332 | 0.958 | inactive |

Part of the list above, set out differently.
target gene	viability robust z-score, knock-down alone	viability, knock-down alone (DMSO) (fraction of control)	Call
CDK3 (cyclin dependent kinase 3)	-0.0674	0.921	inactive
NME7 (NME/NM23 family member 7)	0.789	1	inactive

More reagents follow:
| target gene | viability robust z-score, knock-down alone | viability, knock-down alone (DMSO) (fraction of control) | Call |
| --- | --- | --- | --- |
| CASK (calcium/calmodulin dependent serine protein kinase) | 0.789 | 1 | inactive |
| AAK1 (AP2 associated kinase 1) | 0.648 | 0.987 | inactive |
| GRK2 (G protein-coupled receptor kinase 2) | -2.62 | 0.685 | inactive |
| CDK11A (cyclin dependent kinase 11A) | 0.789 | 1 | inactive |
| NEK3 (NIMA related kinase 3) | 0.789 | 1 | inactive |
| PPP2R1A (protein phosphatase 2 scaffold subunit Aalpha) | 0.789 | 1 | inactive |
| PFKM (phosphofructokinase, muscle) | 0.452 | 0.969 | inactive |
